± gives the uncertainty stated by the source. Many entries were measured with a wide error.
Experiment: self-splicing fitness, log relative to wild type (ln ratio); higher = more splicing; Tetrahymena group I intron in knt gene, E. coli kanamycin selection, DiMSum; sequences stand for … in CUCUCU…GGAGGGAAAAGUUAUCAGGCAUGCACCUGGUAGCUAGUCUUUAAACCAAUAGAUUGCAUCGGUUUAAAAGGCAAGACCGUCAAAUUGCGGGAAAGGGGUCAACAGCCGUUCAGUACCAAGUCUCAGGGGAAACUUUGAGAUGGCCUUGCAAAGGGUAUGGUAAUAAGCUGACGGACAUGGUCCUAACCACGCAGCCAAGUCCUAAGUCAACAGAUCUUCUGUUGAUAUGGAUGCAGUUCACAGACUAAAUGUCGGUCGGGGAAGAUGUAUUCUUCUCAUAAGAUAUAGUCGGACCUCUCCUUAAUGGGAGCUAGCGGAUGAAGUGAUGCAACACUGGAGCCGCUGGGAACUAAUUUGUAUGCGAAAGUAUAUUGAUUAGUUUUGGAGUACUCGUGGUCG
Outline: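 A randomised library covering all eight P1ex-region intron nucleotides was built with the intron in the knt kanamycin-resistance gene on pET-22b(+) and held in E. coli BL21(DE3). Cells were grown overnight at 37°C or 30°C on LB agar, with or without 25 μg/mL kanamycin, plus 100 μg/mL carbenicillin, 50 μM IPTG and 0.2% rhamnose, and pooled colonies were amplicon-sequenced on an Illumina HiSeq 2500. DiMSum fitness is the error-weighted combination of wild-type-normalised replicate fold changes, kanamycin versus none.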

| Sequence | self-splicing fitness (ln) (37 °C) | self-splicing fitness (ln) (30 °C) |
| --- | --- | --- |
| UAUUAGCAAUAUUACGCUCC | -1.72 ± 0.85 | – |
| UCCCAGCAAUAUUACGUCCG | – | -3.89 ± 0.74 |
| GGAGAGCAAUAUUACGUACA | – | -4.04 ± 0.6 |
| CCUAAGCAAUAUUACGACGC | – | -2.7 ± 0.61 |
| AAGUAGCAAUAUUACGCCUC | -1.49 ± 0.61 | – |
| AGUGAGCAAUAUUACGCCGU | -1.85 ± 0.51 | – |
| GUUGAGCAAUAUUACGUGUA | -3.87 ± 0.72 | -3 ± 0.21 |
| UCGGAGCAAUAUUACGUAGA | -1.38 ± 0.67 | -1.4 ± 1.2 |
| UGCUAGCAAUAUUACGCCUC | -2.73 ± 0.54 | -4.92 ± 0.59 |
| AACUAGCAAUAUUACGUCAC | -2.54 ± 0.76 | – |
| AAAGAGCAAUAUUACGCCAA | -1.13 ± 0.55 | – |
| AGGGAGCAAUAUUACGAAGC | -1.33 ± 0.87 | – |
| AAGAAGCAAUAUUACGAUAA | -1.07 ± 0.15 | -1.11 ± 0.12 |
| CCCCAGCAAUAUUACGACAA | – | -5.09 ± 0.72 |
| CGUAAGCAAUAUUACGCGCC | – | -3.76 ± 0.54 |
| GGAUAGCAAUAUUACGGGAA | -1.52 ± 0.61 | -2.46 ± 0.51 |
| CAUGAGCAAUAUUACGAUAC | -2.61 ± 0.54 | – |
| CGUCAGCAAUAUUACGAGAC | -1.9 ± 0.32 | -2.95 ± 0.38 |
| GACCAGCAAUAUUACGCUCU | 0.0283 ± 0.089 | -0.6 ± 0.061 |
| AGCAAGCAAUAUUACGAUAA | 0.308 ± 0.11 | -2.16 ± 0.12 |
| GACAAGCAAUAUUACGUGCA | 0.0273 ± 0.077 | -0.912 ± 0.06 |
| GCUGAGCAAUAUUACGCGGC | – | -3.48 ± 1.1 |
| UACUAGCAAUAUUACGAAAU | – | -4.31 ± 0.51 |
| UCUUAGCAAUAUUACGUAUA | – | -4.5 ± 0.6 |

| Sequence | self-splicing fitness (ln) (37 °C) | self-splicing fitness (ln) (30 °C) |
| --- | --- | --- |
| AUCAAGCAAUAUUACGGGUC | -2.19 ± 0.27 | -3.33 ± 0.29 |
| UGGGAGCAAUAUUACGAGAC | -1.69 ± 0.82 | -2.57 ± 0.63 |
| CCCAAGCAAUAUUACGUCAG | -1.97 ± 0.13 | -4.12 ± 0.17 |
| AUCCAGCAAUAUUACGCACG | -0.334 ± 0.13 | -1.68 ± 0.12 |
| GAAGAGCAAUAUUACGGAAU | -2.84 ± 0.61 | -2.81 ± 1.1 |
| CGCGAGCAAUAUUACGCGCG | – | -4.56 ± 0.51 |
| UUUCAGCAAUAUUACGUUCU | – | -3.86 ± 0.52 |
| CUUGAGCAAUAUUACGGGCC | – | -3.31 ± 0.74 |
| CCGCAGCAAUAUUACGUCCC | – | -3.63 ± 0.6 |
| GUGAAGCAAUAUUACGCACC | – | -4.63 ± 0.58 |
| UCAGAGCAAUAUUACGUUUA | -2.6 ± 0.23 | -3.02 ± 0.25 |
| CGUGAGCAAUAUUACGAUAC | -0.778 ± 1.4 | – |
| CAAGAGCAAUAUUACGAUAC | -3.05 ± 0.74 | – |
| UGAGAGCAAUAUUACGUUGG | – | -4.35 ± 0.51 |
| AGGGAGCAAUAUUACGUGGC | -1.6 ± 0.84 | -3.17 ± 1 |
| GGGGAGCAAUAUUACGUCUA | – | -2.13 ± 0.67 |
| CUUCAGCAAUAUUACGCACA | -2.99 ± 0.53 | – |
| CCUGAGCAAUAUUACGCGUG | -2.82 ± 0.22 | -3.05 ± 0.19 |
| CCAAAGCAAUAUUACGAUCC | -2.69 ± 0.54 | – |
| UGCUAGCAAUAUUACGUAGC | -1.18 ± 0.56 | 0.239 ± 1.2 |
| GUGGAGCAAUAUUACGUCGU | -1.48 ± 0.26 | -1.65 ± 0.21 |
| UAAGAGCAAUAUUACGCCAA | -2.04 ± 0.65 | -1.61 ± 0.76 |
| UGACAGCAAUAUUACGCCGC | -2.73 ± 0.61 | – |
| AACGAGCAAUAUUACGCUAC | -1.86 ± 0.31 | -3.06 ± 0.61 |

| Sequence | self-splicing fitness (ln) (37 °C) | self-splicing fitness (ln) (30 °C) |
| --- | --- | --- |
| AAGGAGCAAUAUUACGUGCU | – | -3.7 ± 0.53 |
| UUGUAGCAAUAUUACGGAUU | – | -4.8 ± 1 |
| CCAUAGCAAUAUUACGUGUG | -1.07 ± 0.08 | -2.23 ± 0.09 |
| CUUGAGCAAUAUUACGGCAA | -1.78 ± 0.66 | -1.93 ± 0.82 |
| AGUAAGCAAUAUUACGAAAG | -3 ± 0.74 | – |
| UAUGAGCAAUAUUACGAAAA | -2.08 ± 1.1 | 0.526 ± 1.1 |
| GGCGAGCAAUAUUACGGAGC | – | -2.39 ± 0.64 |
| GUCUAGCAAUAUUACGCCAC | -1.54 ± 1.2 | -0.135 ± 1.2 |
| CUGGAGCAAUAUUACGUGCA | -2.24 ± 0.55 | – |
| GCGUAGCAAUAUUACGUUCC | – | -4.08 ± 0.73 |
| AGUCAGCAAUAUUACGUUGA | – | -4.05 ± 0.51 |
| CUAGAGCAAUAUUACGGCAC | – | -3.4 ± 0.6 |
| GCCAAGCAAUAUUACGUGUC | -0.848 ± 0.075 | -1.62 ± 0.06 |
| CUAGAGCAAUAUUACGGCUC | -1.98 ± 0.51 | – |
| CUGCAGCAAUAUUACGACCU | -1.73 ± 0.54 | -2.84 ± 0.53 |
| AUUAAGCAAUAUUACGAAGA | -0.906 ± 0.68 | -1.73 ± 0.67 |
| UCUCAGCAAUAUUACGGCCG | – | -3.6 ± 0.53 |
| AUUGAGCAAUAUUACGGCGU | 0.573 ± 0.17 | -0.734 ± 0.11 |
| CUAAAGCAAUAUUACGUCUC | – | -4.49 ± 0.72 |
| AGAGAGCAAUAUUACGUCCU | -0.89 ± 0.13 | -2.25 ± 0.12 |
| CGAAAGCAAUAUUACGCCCC | -0.927 ± 1.2 | 1.22 ± 1 |
| UCUAAGCAAUAUUACGGAUU | – | -4.06 ± 0.51 |
| ACCGAGCAAUAUUACGUCCA | – | -3.34 ± 0.74 |
| CUGUAGCAAUAUUACGGAGA | -3.56 ± 0.34 | -2.5 ± 0.21 |

| Sequence | self-splicing fitness (ln) (37 °C) | self-splicing fitness (ln) (30 °C) |
| --- | --- | --- |
| GGCCAGCAAUAUUACGCGAC | -1.47 ± 1.2 | 0.468 ± 1.1 |
| UGAUAGCAAUAUUACGCGGC | – | -2.72 ± 0.57 |
| UACUAGCAAUAUUACGCUGC | – | -2.5 ± 0.91 |
| UUGUAGCAAUAUUACGGCUA | – | -2.72 ± 0.58 |
| AUUGAGCAAUAUUACGAAUA | -1.98 ± 0.81 | -3.63 ± 1 |
| AUUAAGCAAUAUUACGCCAC | – | -2.88 ± 0.75 |
| CGCUAGCAAUAUUACGCGCA | -1.52 ± 0.17 | -1.81 ± 0.17 |
| AGUUAGCAAUAUUACGGGGC | -1.99 ± 0.66 | -2.94 ± 0.75 |
| AUUCAGCAAUAUUACGACCC | 0.209 ± 0.5 | 0.119 ± 0.42 |
| UAGUAGCAAUAUUACGUCCA | -0.316 ± 0.56 | – |
| CAUUAGCAAUAUUACGACUC | -1.74 ± 0.59 | -3.48 ± 1.1 |
| CGUUAGCAAUAUUACGCGAG | -3.38 ± 0.53 | – |
| UGCGAGCAAUAUUACGCGAU | -2.22 ± 0.67 | – |
| CAAUAGCAAUAUUACGCCAC | -3.6 ± 0.73 | – |
| ACGGAGCAAUAUUACGUUUU | – | -5.16 ± 0.51 |
| UCAGAGCAAUAUUACGACCG | -1.37 ± 1.2 | -3.48 ± 1.1 |
| GUGGAGCAAUAUUACGAAAC | – | -4.39 ± 0.59 |
| GGGUAGCAAUAUUACGAGAA | -1.94 ± 0.77 | -0.868 ± 1.4 |
| AUUUAGCAAUAUUACGCCCC | -0.0681 ± 0.9 | – |
| CUCGAGCAAUAUUACGACAC | -2.89 ± 0.53 | – |
| CGGUAGCAAUAUUACGAGUA | -1.32 ± 0.4 | -2.5 ± 0.56 |
| CCGUAGCAAUAUUACGAGUA | – | -3.48 ± 0.52 |
| UUGUAGCAAUAUUACGAUGA | 0.0216 ± 0.12 | -0.47 ± 0.13 |
| CCUGAGCAAUAUUACGGCCC | -1.95 ± 0.54 | – |

| Sequence | self-splicing fitness (ln) (37 °C) | self-splicing fitness (ln) (30 °C) |
| --- | --- | --- |
| CGUUAGCAAUAUUACGAUAC | – | -3.94 ± 0.75 |
| CUUUAGCAAUAUUACGCAGA | – | -2.93 ± 0.55 |
| UUCGAGCAAUAUUACGUAAC | -1.46 ± 0.71 | -3.36 ± 0.54 |
| CCAUAGCAAUAUUACGGACC | -1.72 ± 0.59 | -3.43 ± 1 |
| GAGUAGCAAUAUUACGACCC | -0.998 ± 0.59 | – |
| UCAGAGCAAUAUUACGUAGC | -2.68 ± 0.54 | -2.09 ± 0.54 |
| CCUGAGCAAUAUUACGAUUC | -3.74 ± 0.73 | – |
| CUUGAGCAAUAUUACGCAUU | – | -5.02 ± 0.59 |
| GGCUAGCAAUAUUACGCAGU | -2.37 ± 0.76 | – |
| UGGGAGCAAUAUUACGCUGA | -0.92 ± 0.61 | -1.87 ± 0.57 |
| CUGUAGCAAUAUUACGUGGC | – | -4.26 ± 0.61 |
| ACUAAGCAAUAUUACGAAUA | -2.55 ± 0.25 | -2.99 ± 0.23 |
| GUGGAGCAAUAUUACGACAU | -1.48 ± 0.038 | -2.402 ± 0.022 |
| CCGAAGCAAUAUUACGAAGC | – | -4.31 ± 1 |
| UCAUAGCAAUAUUACGCAGU | -3.4 ± 0.31 | -4.03 ± 0.36 |
| CCUUAGCAAUAUUACGGUGU | -2.81 ± 0.23 | -3.82 ± 0.24 |
| GAGCAGCAAUAUUACGUCUG | -1.67 ± 0.55 | -2.87 ± 0.82 |
| UAUCAGCAAUAUUACGCUGA | – | -3.63 ± 1 |
| UGAGAGCAAUAUUACGCAUA | -3.38 ± 0.52 | – |
| CGGGAGCAAUAUUACGUCGC | -2.15 ± 0.79 | -4.58 ± 1 |
| CUGGAGCAAUAUUACGGCUC | -0.693 ± 1 | – |

Taken from above.
Value for CUUGAGCAAUAUUACGCAUU under self-splicing fitness (ln) (30 °C): -5.02 ± 0.59
Value for CUGUAGCAAUAUUACGUGGC under self-splicing fitness (ln) (30 °C): -4.26 ± 0.61
Value for CCAUAGCAAUAUUACGGACC under self-splicing fitness (ln) (30 °C): -3.43 ± 1
Value for CGUUAGCAAUAUUACGAUAC under self-splicing fitness (ln) (30 °C): -3.94 ± 0.75

Source: the supplement of paper PMC7877785
